Assay results reported in PubChem BioAssay AID504467 (National Center for Advancing Translational Sciences (NCATS), 2011).
Several values for one entry are separate records, joined by “and”; a condition that tells them apart may be missing. Equal values may be shown once. The whole screen tested about 330,000 compounds, of which about 7,700 (2.3%) were called active. The inconclusive results got no clear call from the source; some entries with a clear call stand among them for comparison. Calls follow the shape of the dose curve; as a rule, active = well fitted inhibition curve with a large enough effect; inconclusive = small, poorly fitted or top-dose-only effect, or effect the other way; inactive = flat fitted curve, though single readings scatter. Where the call is inconclusive, the potency comes from a doubtful curve fit.

Test: qHTS screen for small molecules that inhibit ELG1-dependent DNA repair in human embryonic kidney (HEK293T) cells expressing luciferase-tagged ELG1; also: nearly all actives have a fitted effect of over 55% in size
Details: HEK293T ELG1-luciferase reporter, luminescence, 16 h, DNA damage induced by 5-fluorouridine; series mostly up to 46.1 µM
How it was run: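 Quantitative HTS, concentration-response format. 2,000 cells/well co-treated with 5-fluorouridine and compound, 16 hr in 5% CO2 at 37 °C; ONE-Glo luminescence read after 30 min.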
Potency is read from the fitted curve at half-maximal effect.

Row | SMILES | Potency
1 | O=C(Nc1cc(-c2ccccc2)nn1-c1ccccc1F)c1ccc([N+](=O)[O-])cc1 | inconclusive: 29.1 µM [inhibitor, single point]
2 | N=c1c(C(=O)NC2CCCC2)cc2c(=O)n3ccccc3nc2n1C1CCCCC1 | inactive
3 | Cc1ccc(CN(C)CC(=O)Nc2ccc3c(c2)CCC3)cc1 | inactive
4 | COc1cc(C(=O)O)c([N+](=O)[O-])c(OC)c1OC | inactive
5 | COc1ccc(OC)c(NC(=O)COc2coc(CN3CCCc4ccccc43)cc2=O)c1 | inactive
6 | O=C(CNC(=O)c1ccccc1F)OCC(=O)c1c[nH]c2ccccc12 | inconclusive: 18.3 µM [activator, partial curve, poor fit]
7 | Cc1ccc(S(=O)(=O)N2CCN(C(=O)c3n[nH]c(=O)c4ccccc34)CC2)c(C)c1 | inconclusive: 29.1 µM [inhibitor, single point]
8 | C=CCC[C@H](Cc1ccc(F)cc1)C(=O)OC[C@@H](Cc1c[nH]c2ccccc12)NC(=O)[C@H](CC=C)CC(=O)N(CCO)Cc1ccccc1 | active: 16.4 µM
9 | CCCc1cc2c(cc1NC(=O)c1ccc(C(C)(C)C)cc1)OCO2 | inconclusive: 16.4 µM [activator, single point]
10 | Cc1ccccc1/C=N/N1CCN(c2ccccc2)CC1 | inconclusive: 20.6 µM [activator, single point]
11 | C/C(=N\Nc1cccc([N+](=O)[O-])c1)c1cc(F)ccc1O | inconclusive: 18.3 µM [activator, single point]
12 | Cc1cc(C(=O)N/N=C/c2ccccc2)c(C)o1 | inconclusive: 23.1 µM [activator, partial curve]
13 | FC(F)(F)c1nc(-c2cccnc2)ncc1-c1nnnn1-c1ccccc1 | inconclusive: 1.16 µM [inhibitor, full curve, poor fit]
14 | O=[N+]([O-])c1ccc(Cl)c(CN2CCN(c3ncccn3)CC2)c1 | inactive
15 | O=C(CSc1ncccn1)n1c2c(c3ccccc31)CCCC2 | inconclusive: 5.8 µM [activator, full curve]
16 | O=C(Nc1ccc(F)cc1)c1cccnc1Oc1ccccc1 | inactive
17 | O=C(COC(=O)C12CC3CC(CC(O)(C3)C1)C2)N1CCN(S(=O)(=O)c2ccc(Cl)cc2)CC1 | inconclusive: 18.4 µM [inhibitor, single point]
18 | CCc1cc(=O)oc2c3c(cc(OCC(=O)Nc4cccnc4)c12)OC(C)(C)CC3 | inconclusive: 25.9 µM [inhibitor, single point]
19 | CCc1ccc(Cc2cnc(NC(=O)C3=NCCN3)s2)cc1 | inconclusive: 29.1 µM [inhibitor, single point]
20 | CCn1cc(C(=O)N2CCN(c3ccc(OC)cc3)CC2)c2cc(OC)c(OC)cc2c1=O | inactive
21 | COc1ccc(C2CC(c3cccs3)=NN2C(=O)CSc2nc3c(cnn3-c3ccccc3)c(=O)[nH]2)cc1 (stereo not drawn) | inconclusive: 9.2 µM [inhibitor, partial curve]
22 | CCOC(=O)c1cnc2ccc(C)cn2c1=O | inconclusive: 20.6 µM [activator, partial curve]

In a second layout: results already given.
Row,SMILES,Potency
2,N=c1c(C(=O)NC2CCCC2)cc2c(=O)n3ccccc3nc2n1C1CCCCC1,inactive
3,Cc1ccc(CN(C)CC(=O)Nc2ccc3c(c2)CCC3)cc1,inactive

(next part)

Row | SMILES | Potency
23 | C=CCn1c(NC(C)c2cc(Cl)ccc2O)nc2ccccc21 (stereo not drawn) | inconclusive: 18.4 µM [inhibitor, single point]
24 | CC(=O)c1ccc(N2CCN(C(=O)c3cc(S(=O)(=O)N4CCOCC4)ccc3C)CC2)cc1 | inactive
25 | CN(Cc1ccccc1)S(=O)(=O)c1ccc2c(c1)n(C)c(=O)c(=O)n2C | inactive
26 | CCOC(=O)C1CCCN(c2c(NCC3CCCN3CC)c(=O)c2=O)C1 (stereo not drawn) | inconclusive: 23.1 µM [activator, partial curve, poor fit]
27 | CC(CC(=O)NCc1ccc(Cl)cc1)S(=O)(=O)c1ccc2c(c1)NC(=O)CO2 (stereo not drawn) | inconclusive: 23.1 µM [inhibitor, partial curve]
28 | O=C(Nc1ccccc1)c1nc[nH]c1C(=O)NCCCCNC(=O)c1[nH]cnc1C(=O)Nc1ccccc1 | inconclusive: 5.8 µM [inhibitor, single point]
29 | COc1ccc(C(CCN2CCN(c3ccccc3)CC2)c2c(O)cc(OC)cc2OC)cc1 (stereo not drawn) | inactive
30 | O=C(CSc1ncccn1)N1CCCCCC1 | inconclusive: 16.4 µM [activator, single point]
31 | CC(C)=CCC/C(C)=C/CNC(=O)C[C@H]1C[C@H](C(=O)N2CCOCC2)[C@@]2(CCC3CCCC3)c3[nH]c4cc(CCC(=O)N(C)C)ccc4c3CCN2C1=O | active: 23.1 µM
32 | O=C(CCCn1c(=S)[nH]c2cc3c(cc2c1=O)OCO3)N1CCN(c2ccccn2)CC1 | active: 14.6 µM
33 | Cc1cccc(NC(=S)NC(=O)c2ccc(-c3ccccc3)cc2)n1 | inconclusive: 9.2 µM [activator, partial curve]
34 | CC1=C(C(=O)Nc2ccccc2)C(c2ccc(C)o2)n2c(s/c(=C/c3ccccc3)c2=O)=N1 (stereo not drawn) | active: 20.6 µM
35 | O=C(NCC1CCCO1)c1ccccc1NS(=O)(=O)c1cc([N+](=O)[O-])ccc1Cl (stereo not drawn) | inconclusive: 23.1 µM [inhibitor, partial curve, poor fit]
36 | CCc1ccc(OCC(=O)O/N=C(\N)c2ccccn2)cc1 | inconclusive: 9.2 µM [activator, partial curve]
37 | COc1ccc(Cl)cc1C(=O)OCC(=O)NCCNC(=O)COC(=O)c1cc(Cl)ccc1OC | inactive
38 | COc1ccc(N(CC(=O)Nc2cc(OC)ccc2OC)S(=O)(=O)c2c(C)nn(C)c2C)cc1 | inactive
39 | O=C(Nc1cccc(Cl)c1)Nc1nccs1 | inconclusive: 29.1 µM [activator, single point] and inconclusive: 16.4 µM [activator, partial curve]
40 | Cc1cc(C)cc(NC(=S)NCCSc2ccc(Cl)cc2)c1 | inactive
41 | CC(C)c1nc(CNC(=O)c2ccc(OC3CCN(Cc4ccccn4)CC3)cc2)cs1 | inconclusive: 23.1 µM [inhibitor, partial curve, poor fit]
42 | CC1CCCCN1C(=O)COC(=O)C1CCN(S(=O)(=O)c2ccc3c(c2)OCCO3)CC1 (stereo not drawn) | inactive
43 | COc1cccc(NC(=O)CCC(=O)Nc2cccc(OC)c2)c1 | inactive
